In article PMC11958688:
Results are given in words; binding and its absence hold for the method and conditions named. Binding seen in cells or lysates may run through a third protein. Some entries that bind do so weakly or less than the wild type.

Chains of the proteins cited; added tags and fusions are not shown. Lines headed by an entry give the natural chain unless they say otherwise; changes in a name come on top. A line that says so, or that is headed by a name, gives the form on record, which may keep a tag or linker.
full-length human NTSR1 F286A, Flag at N-terminus and LgBiT at C-terminus (P30989, form named): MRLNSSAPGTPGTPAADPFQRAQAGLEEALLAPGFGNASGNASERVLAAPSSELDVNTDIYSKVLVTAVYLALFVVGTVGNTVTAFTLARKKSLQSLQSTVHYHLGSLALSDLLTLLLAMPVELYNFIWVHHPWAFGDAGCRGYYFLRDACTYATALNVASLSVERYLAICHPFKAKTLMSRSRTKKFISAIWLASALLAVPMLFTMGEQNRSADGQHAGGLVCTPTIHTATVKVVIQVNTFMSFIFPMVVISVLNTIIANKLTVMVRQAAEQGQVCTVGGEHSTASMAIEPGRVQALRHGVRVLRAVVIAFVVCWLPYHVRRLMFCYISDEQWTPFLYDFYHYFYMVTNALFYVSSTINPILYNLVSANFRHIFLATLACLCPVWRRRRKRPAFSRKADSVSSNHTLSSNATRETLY
full-length human NTSR1 L298A, Flag at N-terminus and LgBiT at C-terminus (P30989, form named): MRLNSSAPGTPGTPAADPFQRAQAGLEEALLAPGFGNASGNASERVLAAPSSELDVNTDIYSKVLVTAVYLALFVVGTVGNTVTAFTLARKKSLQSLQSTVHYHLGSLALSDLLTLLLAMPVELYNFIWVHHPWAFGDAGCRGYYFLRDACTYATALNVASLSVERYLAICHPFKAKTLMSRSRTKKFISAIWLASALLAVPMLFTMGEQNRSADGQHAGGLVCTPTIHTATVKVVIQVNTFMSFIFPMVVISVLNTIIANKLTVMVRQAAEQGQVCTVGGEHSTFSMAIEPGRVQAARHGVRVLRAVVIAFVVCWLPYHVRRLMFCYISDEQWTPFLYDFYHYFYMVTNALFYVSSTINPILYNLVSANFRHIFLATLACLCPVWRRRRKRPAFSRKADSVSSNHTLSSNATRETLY
full-length human NTSR1 M288A, Flag at N-terminus and LgBiT at C-terminus (P30989, form named): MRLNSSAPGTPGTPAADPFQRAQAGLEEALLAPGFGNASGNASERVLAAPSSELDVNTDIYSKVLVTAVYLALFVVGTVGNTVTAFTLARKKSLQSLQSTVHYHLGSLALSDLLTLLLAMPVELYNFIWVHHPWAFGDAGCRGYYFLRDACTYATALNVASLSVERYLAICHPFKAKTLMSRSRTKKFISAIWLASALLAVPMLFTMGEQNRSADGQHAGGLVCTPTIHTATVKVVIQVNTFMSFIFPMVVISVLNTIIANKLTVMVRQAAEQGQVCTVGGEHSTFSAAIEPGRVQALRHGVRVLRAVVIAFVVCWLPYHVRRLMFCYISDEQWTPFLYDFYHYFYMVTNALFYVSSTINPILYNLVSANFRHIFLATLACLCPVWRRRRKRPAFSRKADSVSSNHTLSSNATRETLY
UniProt P49407: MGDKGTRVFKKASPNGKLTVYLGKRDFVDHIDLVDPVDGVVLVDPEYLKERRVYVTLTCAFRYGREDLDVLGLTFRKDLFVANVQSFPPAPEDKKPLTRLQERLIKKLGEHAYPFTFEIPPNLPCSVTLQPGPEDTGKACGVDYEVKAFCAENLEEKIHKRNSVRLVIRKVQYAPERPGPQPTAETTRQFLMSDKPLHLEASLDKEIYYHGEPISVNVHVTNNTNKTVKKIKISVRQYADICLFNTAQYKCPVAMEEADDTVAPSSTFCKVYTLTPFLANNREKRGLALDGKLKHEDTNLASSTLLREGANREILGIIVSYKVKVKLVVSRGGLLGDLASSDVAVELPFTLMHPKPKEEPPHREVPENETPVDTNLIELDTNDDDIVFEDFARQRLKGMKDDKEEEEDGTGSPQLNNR

Experiments:
Experiment in all cases: split reporter; HEK293T cells transfected with NTSR1-LgBiT and SmBiT-βArr1 at 1:1; 10 μM furimazine; luminescence read for 20 min after addition of ligands (SBI-553); room temperature
[1] = biological target: full-length human NTSR1 F286A, Flag at N-terminus and LgBiT at C-terminus (human) (UniProt P30989)
[2] = biological target: full-length human NTSR1 L298A, Flag at N-terminus and LgBiT at C-terminus (human) (UniProt P30989)
[3] = biological target: full-length human NTSR1 M288A, Flag at N-terminus and LgBiT at C-terminus (human) (UniProt P30989)
[4] = biological target: full-length human NTSR1 wild type, Flag at N-terminus and LgBiT at C-terminus (human) (UniProt P30989)

Measured: binding

human βArr1 with SmBiT at its N-terminus (from UniProt P49407 1-418)
binds: all assays above
